Consider 36 targets from the supplement of paper PMC10849652.

Protein sequences, listed by entry. Tags and fused reporters are not part of them. Lines headed by an entry give the natural chain unless they say otherwise; changes in a name come on top.
UniProt Q8N357: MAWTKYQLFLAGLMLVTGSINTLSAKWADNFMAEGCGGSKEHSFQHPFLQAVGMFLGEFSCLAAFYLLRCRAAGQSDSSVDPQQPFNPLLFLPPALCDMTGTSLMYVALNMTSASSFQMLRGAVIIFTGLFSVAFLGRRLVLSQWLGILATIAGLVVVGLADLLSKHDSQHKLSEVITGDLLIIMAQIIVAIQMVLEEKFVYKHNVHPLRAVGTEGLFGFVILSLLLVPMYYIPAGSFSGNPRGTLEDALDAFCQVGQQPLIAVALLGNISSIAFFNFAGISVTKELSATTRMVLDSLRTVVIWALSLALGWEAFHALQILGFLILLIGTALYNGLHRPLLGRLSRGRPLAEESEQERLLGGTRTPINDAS
UniProt P14672: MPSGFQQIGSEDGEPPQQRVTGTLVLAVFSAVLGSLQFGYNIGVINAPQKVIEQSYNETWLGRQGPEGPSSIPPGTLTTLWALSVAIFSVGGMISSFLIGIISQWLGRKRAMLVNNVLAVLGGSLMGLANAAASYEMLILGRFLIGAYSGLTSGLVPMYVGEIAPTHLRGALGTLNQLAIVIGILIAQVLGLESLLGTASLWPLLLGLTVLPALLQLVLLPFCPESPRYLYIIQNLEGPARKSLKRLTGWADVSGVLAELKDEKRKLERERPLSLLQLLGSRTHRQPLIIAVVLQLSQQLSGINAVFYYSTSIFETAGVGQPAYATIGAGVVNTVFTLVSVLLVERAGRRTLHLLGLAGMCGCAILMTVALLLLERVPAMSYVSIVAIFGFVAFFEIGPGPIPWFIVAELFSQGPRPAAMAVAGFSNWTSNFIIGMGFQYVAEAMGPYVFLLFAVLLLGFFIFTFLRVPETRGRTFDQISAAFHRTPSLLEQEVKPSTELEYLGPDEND
UniProt Q6P1K1: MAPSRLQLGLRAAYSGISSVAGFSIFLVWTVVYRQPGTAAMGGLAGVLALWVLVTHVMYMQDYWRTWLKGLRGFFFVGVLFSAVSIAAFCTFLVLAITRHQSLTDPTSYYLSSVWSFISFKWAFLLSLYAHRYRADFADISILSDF
UniProt Q9H1N7: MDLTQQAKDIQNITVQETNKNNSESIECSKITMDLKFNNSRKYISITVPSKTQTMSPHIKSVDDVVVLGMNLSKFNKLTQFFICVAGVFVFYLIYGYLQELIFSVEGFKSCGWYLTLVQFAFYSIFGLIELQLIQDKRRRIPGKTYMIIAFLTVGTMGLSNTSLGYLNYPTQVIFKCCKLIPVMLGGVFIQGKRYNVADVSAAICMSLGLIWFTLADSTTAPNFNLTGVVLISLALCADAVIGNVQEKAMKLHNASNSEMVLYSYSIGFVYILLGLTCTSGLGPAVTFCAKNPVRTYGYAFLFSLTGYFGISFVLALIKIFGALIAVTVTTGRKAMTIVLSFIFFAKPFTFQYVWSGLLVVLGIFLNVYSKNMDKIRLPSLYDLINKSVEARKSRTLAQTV
UniProt Q86VD7: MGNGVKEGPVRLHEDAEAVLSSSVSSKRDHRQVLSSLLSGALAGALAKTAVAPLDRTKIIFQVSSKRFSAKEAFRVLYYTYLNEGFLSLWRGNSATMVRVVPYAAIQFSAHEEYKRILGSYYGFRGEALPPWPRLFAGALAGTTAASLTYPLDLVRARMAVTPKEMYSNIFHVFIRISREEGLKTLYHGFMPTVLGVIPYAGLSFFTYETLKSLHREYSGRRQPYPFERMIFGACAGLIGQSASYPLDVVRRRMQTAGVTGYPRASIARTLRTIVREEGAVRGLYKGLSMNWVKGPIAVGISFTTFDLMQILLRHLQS
UniProt P50443: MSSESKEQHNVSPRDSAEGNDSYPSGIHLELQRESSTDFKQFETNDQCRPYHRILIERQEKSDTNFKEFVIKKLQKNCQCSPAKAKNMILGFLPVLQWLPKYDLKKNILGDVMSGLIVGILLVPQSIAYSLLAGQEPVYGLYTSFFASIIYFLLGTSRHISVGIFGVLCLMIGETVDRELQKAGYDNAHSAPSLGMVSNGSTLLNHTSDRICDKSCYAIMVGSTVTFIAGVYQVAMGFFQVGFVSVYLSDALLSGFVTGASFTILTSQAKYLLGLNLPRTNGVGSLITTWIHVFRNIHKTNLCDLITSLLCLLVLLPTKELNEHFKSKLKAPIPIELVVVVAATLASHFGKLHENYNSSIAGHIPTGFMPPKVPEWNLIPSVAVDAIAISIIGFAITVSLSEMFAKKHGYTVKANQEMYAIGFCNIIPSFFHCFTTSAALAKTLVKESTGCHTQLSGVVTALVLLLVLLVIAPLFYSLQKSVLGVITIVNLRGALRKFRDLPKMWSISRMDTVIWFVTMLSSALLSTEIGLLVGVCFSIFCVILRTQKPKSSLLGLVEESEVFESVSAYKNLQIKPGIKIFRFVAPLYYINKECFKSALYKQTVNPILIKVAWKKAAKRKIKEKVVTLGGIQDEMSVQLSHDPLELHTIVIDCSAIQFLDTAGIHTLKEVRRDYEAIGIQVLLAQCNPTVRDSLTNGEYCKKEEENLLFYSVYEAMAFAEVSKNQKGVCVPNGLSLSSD
UniProt Q8NEW0: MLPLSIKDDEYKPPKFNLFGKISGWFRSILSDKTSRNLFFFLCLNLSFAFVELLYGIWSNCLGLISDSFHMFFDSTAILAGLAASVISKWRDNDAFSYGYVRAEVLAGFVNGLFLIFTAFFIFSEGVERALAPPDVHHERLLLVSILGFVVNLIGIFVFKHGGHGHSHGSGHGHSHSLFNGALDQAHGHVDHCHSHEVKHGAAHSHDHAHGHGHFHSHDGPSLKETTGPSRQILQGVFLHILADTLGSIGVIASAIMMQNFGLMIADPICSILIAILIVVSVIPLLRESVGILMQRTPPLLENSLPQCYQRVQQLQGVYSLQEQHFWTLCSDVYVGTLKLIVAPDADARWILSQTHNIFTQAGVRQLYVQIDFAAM
UniProt P48029: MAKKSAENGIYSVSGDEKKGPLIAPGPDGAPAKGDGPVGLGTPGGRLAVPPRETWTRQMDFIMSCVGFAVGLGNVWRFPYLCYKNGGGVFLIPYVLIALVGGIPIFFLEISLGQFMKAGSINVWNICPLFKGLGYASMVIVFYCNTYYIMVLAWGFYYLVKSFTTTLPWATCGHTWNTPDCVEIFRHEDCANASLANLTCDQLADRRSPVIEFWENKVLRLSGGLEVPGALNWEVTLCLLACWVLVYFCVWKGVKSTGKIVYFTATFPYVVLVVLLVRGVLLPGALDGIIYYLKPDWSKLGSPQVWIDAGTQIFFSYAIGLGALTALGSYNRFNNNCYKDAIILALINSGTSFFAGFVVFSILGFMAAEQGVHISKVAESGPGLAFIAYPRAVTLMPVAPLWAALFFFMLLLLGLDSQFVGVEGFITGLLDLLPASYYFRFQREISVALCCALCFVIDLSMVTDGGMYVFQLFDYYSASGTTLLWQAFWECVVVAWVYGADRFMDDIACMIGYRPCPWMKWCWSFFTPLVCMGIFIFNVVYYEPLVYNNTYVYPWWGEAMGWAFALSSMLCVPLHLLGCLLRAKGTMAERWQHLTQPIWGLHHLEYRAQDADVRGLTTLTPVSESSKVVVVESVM
UniProt Q96A29: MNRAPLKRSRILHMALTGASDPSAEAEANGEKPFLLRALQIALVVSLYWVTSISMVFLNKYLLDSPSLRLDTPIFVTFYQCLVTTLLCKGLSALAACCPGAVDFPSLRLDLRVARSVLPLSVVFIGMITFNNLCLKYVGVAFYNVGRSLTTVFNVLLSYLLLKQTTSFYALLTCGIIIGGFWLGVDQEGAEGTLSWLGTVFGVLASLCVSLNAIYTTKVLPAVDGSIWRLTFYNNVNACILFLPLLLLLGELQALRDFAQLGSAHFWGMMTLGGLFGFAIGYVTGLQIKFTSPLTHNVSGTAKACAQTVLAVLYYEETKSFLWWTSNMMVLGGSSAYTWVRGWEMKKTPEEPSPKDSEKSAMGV
UniProt Q8NBW4: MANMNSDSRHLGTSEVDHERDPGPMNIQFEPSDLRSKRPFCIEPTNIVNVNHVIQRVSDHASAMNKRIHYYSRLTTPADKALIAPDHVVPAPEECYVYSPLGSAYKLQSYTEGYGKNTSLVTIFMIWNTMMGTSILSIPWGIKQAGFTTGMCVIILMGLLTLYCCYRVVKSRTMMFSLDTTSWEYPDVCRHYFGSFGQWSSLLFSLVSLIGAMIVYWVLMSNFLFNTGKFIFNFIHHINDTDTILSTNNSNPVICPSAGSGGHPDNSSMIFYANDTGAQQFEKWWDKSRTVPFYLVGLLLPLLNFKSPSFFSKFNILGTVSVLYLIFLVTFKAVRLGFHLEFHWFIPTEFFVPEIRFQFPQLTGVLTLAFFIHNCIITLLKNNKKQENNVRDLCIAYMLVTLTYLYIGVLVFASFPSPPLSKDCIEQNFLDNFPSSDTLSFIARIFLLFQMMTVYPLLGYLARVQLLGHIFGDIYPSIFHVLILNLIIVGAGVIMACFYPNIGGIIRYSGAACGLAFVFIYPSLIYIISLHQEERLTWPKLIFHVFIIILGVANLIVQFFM
UniProt Q8TBP6: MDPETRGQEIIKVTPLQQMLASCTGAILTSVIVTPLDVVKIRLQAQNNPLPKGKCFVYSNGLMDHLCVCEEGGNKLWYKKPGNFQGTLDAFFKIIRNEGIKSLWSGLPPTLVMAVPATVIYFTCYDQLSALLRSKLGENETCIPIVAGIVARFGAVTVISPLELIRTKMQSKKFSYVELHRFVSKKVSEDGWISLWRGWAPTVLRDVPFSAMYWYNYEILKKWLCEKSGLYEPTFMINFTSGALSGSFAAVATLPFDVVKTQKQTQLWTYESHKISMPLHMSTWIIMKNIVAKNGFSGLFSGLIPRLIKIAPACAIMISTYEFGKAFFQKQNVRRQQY
UniProt O75387: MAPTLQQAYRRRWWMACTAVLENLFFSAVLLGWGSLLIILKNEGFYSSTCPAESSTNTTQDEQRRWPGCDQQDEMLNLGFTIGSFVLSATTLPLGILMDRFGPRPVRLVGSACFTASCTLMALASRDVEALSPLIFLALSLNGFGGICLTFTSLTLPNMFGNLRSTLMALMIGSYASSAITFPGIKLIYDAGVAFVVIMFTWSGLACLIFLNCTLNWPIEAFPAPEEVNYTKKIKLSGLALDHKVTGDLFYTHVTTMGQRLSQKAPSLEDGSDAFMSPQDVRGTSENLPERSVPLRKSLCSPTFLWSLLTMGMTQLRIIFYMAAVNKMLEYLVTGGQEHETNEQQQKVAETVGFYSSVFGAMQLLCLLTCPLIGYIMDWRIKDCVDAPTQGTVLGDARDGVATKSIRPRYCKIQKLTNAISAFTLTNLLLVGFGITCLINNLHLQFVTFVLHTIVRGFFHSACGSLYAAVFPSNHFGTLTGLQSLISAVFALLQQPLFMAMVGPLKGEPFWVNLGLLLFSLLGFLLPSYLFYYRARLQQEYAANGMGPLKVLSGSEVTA
UniProt Q9HBR0: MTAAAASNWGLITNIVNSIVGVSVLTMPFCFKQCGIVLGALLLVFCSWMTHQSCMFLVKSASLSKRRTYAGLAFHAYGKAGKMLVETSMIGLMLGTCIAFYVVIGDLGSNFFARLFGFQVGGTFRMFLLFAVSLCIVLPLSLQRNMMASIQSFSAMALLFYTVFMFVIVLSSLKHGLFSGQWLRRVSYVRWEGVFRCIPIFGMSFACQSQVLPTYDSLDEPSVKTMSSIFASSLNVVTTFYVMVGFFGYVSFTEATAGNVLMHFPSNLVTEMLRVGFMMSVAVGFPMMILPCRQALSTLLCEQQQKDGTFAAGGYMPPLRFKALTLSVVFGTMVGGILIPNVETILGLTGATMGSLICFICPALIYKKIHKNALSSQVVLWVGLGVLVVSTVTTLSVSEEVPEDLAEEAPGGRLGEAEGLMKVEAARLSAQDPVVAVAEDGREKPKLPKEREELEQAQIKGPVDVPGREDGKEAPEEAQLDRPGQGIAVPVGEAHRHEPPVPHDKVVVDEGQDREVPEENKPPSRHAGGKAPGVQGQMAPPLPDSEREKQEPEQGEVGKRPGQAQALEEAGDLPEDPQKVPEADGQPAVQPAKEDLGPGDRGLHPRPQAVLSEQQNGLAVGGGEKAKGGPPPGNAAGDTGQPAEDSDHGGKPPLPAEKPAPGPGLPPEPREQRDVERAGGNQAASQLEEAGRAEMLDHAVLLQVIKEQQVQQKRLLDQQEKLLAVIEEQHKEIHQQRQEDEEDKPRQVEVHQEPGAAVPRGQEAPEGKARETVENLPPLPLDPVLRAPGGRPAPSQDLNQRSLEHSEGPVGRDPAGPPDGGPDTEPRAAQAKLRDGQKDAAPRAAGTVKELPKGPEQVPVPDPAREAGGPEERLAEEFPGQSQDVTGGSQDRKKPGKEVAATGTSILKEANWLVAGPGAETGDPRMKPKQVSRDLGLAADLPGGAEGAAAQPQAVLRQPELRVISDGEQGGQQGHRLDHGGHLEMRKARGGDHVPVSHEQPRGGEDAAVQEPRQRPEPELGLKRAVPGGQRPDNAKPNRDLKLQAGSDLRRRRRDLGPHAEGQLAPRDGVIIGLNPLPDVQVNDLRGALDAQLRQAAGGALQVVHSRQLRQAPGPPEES

Some of the results follow.

Compound in one test: CC1=C2C(=CC=C1)N=C(N(C2=O)C3=CC=CC=C3C)CN4C=NC5=C(N=CN=C54)N
The test is described as follows: log2 fold change, soluble protein after heating vs DMSO (PISA); higher = thermal stabilisation; K562 lysate, 10 uM; active = over 0.2 and 3.5 SD of the protein, either way, in both replicates (recomputed). The procedure, abridged: (§1)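 K562 pellets were dounce-homogenised in PBS pH 7.4 with 1 mM MgCl2, and the crude extract at 1 mg/mL protein was treated with 10 μM compound for 30 min. Aliquots were heated for 3 min across 48°C-58°C, pooled, and brought to 0.5% NP-40 at 4°C; soluble protein was the supernatant after 21,000xg for 90 min. Soluble protein was quantified by TMTpro 16plex LC-MS/MS with channel sums equalised, and reported as log2 fold change in thermal stability against DMSO controls, with values from duplicates.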
Consider SLC35F6 (UniProt Q8N357), for which the log2 fold change is inactive: -0.049.

With SLC25A30 (UniProt Q5SVS4), the log2 fold change is inactive: -0.045.

On to SLC31A1 (UniProt O15431), for which the log2 fold change is inactive: -0.048.

Turning to SLC2A4 (UniProt P14672), the log2 fold change is inactive: 0.183.

In the case of SLC25A15 (UniProt Q9Y619), the log2 fold change was inactive: -0.03.

Consider SLTM (UniProt Q9NWH9), for which the log2 fold change is inactive: 0.004.

For SLMAP isoform 3 (UniProt Q14BN4), the log2 fold change was inactive: 0.014.

For the target SLC25A25 isoform 3 (UniProt Q6KCM7), the log2 fold change was inactive: 0.013.

On to SLC29A2 (UniProt Q14542), for which the log2 fold change is inactive: 0.044.

Take SLC48A1 (UniProt Q6P1K1): the log2 fold change was inactive: 0.025.

For SLC38A1 (UniProt Q9H2H9), the log2 fold change was inactive: 0.06.

Consider SLC22A5 isoform 3 (UniProt O76082), for which the log2 fold change was inactive: -0.311.

Consider SLC35B3 (UniProt Q9H1N7), for which the log2 fold change was inactive: -0.046.

SMAP2 (UniProt Q8WU79): the log2 fold change is inactive: 0.029.

For the target SLU7 (UniProt O95391), the log2 fold change was inactive: 0.045.

Turning to SLC7A2 isoform 3 (UniProt P52569), the log2 fold change was inactive: -0.162.

Turning to SLC2A3 (UniProt P11169), the log2 fold change is inactive: -0.004.

For the target SLC25A51 (UniProt Q9H1U9), the log2 fold change was inactive: -0.009.

As to SLC25A37 (UniProt Q9NYZ2), the log2 fold change was inactive: -0.036.

In the case of SLC25A20 (UniProt O43772), the log2 fold change was inactive: 0.047.

On to SLC25A42 (UniProt Q86VD7), for which the log2 fold change was inactive: -0.078.

For SLC26A2 (UniProt P50443), the log2 fold change is inactive: 0.

SLC25A1 (UniProt P53007): the log2 fold change was inactive: -0.015.

With SLC25A21 (UniProt Q9BQT8), the log2 fold change was inactive: -0.026.

Regarding SLC25A14 isoform 3 (UniProt O95258), the log2 fold change was inactive: 0.01.

For the target SLC30A7 (UniProt Q8NEW0), the log2 fold change was inactive: 0.007.

As for SLC6A8 (UniProt P48029), the log2 fold change was inactive: -0.028.

Regarding SLC35C1 (UniProt Q96A29), the log2 fold change was inactive: 0.047.

Consider SMAD2 (UniProt Q15796), for which the log2 fold change is inactive: -0.104.

As for SLC38A9 (UniProt Q8NBW4), the log2 fold change is inactive: 0.088.

As for SLC25A40 (UniProt Q8TBP6), the log2 fold change was inactive: 0.053.

In the case of SLC25A26 (UniProt Q70HW3), the log2 fold change was inactive: 0.029.

On to SLC30A1 (UniProt Q9Y6M5), for which the log2 fold change is inactive: 0.022.

Turning to SLC43A1 (UniProt O75387), the log2 fold change is inactive: -0.064.

Take SMAP (UniProt O00193): the log2 fold change was inactive: 0.009.

On to SLC38A10 (UniProt Q9HBR0), for which the log2 fold change is inactive: 0.036.

Compound in the next test: Cc1sc2c(c1C)C(c1ccc(Cl)cc1)=N[C@@H](CC(=O)OC(C)(C)C)c1nnc(C)n1-2
The test is described as above. The procedure, abridged: as §1
Take SLC35F6 (UniProt Q8N357): the log2 fold change was inactive: -0.018.

As for SLC25A30 (UniProt Q5SVS4), the log2 fold change was inactive: -0.13.

As for SLC31A1 (UniProt O15431), the log2 fold change is inactive: 0.069.

As to SLC2A4 (UniProt P14672), the log2 fold change was inactive: 0.004.

In the case of SLC25A15 (UniProt Q9Y619), the log2 fold change was inactive: -0.026.

In the case of SLTM (UniProt Q9NWH9), the log2 fold change is inactive: -0.034.

As for SLMAP isoform 3 (UniProt Q14BN4), the log2 fold change was inactive: -0.029.

As for SLC25A25 isoform 3 (UniProt Q6KCM7), the log2 fold change was inactive: 0.034.

With SLC29A2 (UniProt Q14542), the log2 fold change was inactive: -0.116.

SLC48A1 (UniProt Q6P1K1): the log2 fold change was inactive: -0.03.

As for SLC38A1 (UniProt Q9H2H9), the log2 fold change is inactive: -0.116.

For the target SLC22A5 isoform 3 (UniProt O76082), the log2 fold change was inactive: -0.094.

SLC35B3 (UniProt Q9H1N7): the log2 fold change is inactive: -0.166.

On to SMAP2 (UniProt Q8WU79), for which the log2 fold change is inactive: 0.049.

SLU7 (UniProt O95391): the log2 fold change was inactive: -0.028.

For the target SLC7A2 isoform 3 (UniProt P52569), the log2 fold change was inactive: -0.224.

For SLC2A3 (UniProt P11169), the log2 fold change was inactive: 0.022.

Regarding SLC25A51 (UniProt Q9H1U9), the log2 fold change was inactive: 0.117.

With SLC25A37 (UniProt Q9NYZ2), the log2 fold change is inactive: -0.053.

Consider SLC25A20 (UniProt O43772), for which the log2 fold change was inactive: -0.005.

Regarding SLC25A42 (UniProt Q86VD7), the log2 fold change was inactive: 0.087.

As to SLC26A2 (UniProt P50443), the log2 fold change is inactive: -0.077.

On to SLC25A1 (UniProt P53007), for which the log2 fold change was inactive: 0.001.

With SLC25A21 (UniProt Q9BQT8), the log2 fold change is inactive: -0.051.

For the target SLC25A14 isoform 3 (UniProt O95258), the log2 fold change is inactive: -0.01.

On to SLC30A7 (UniProt Q8NEW0), for which the log2 fold change is inactive: -0.222.

On to SLC6A8 (UniProt P48029), for which the log2 fold change was inactive: -0.001.

On to SMAD2 (UniProt Q15796), for which the log2 fold change was inactive: 0.023.

For the target SLC38A9 (UniProt Q8NBW4), the log2 fold change is inactive: -0.004.

As for SLC25A40 (UniProt Q8TBP6), the log2 fold change is inactive: -0.053.

For the target SLC25A26 (UniProt Q70HW3), the log2 fold change is inactive: -0.078.

As for SLC30A1 (UniProt Q9Y6M5), the log2 fold change was inactive: -0.02.

For the target SLC43A1 (UniProt O75387), the log2 fold change was inactive: 0.061.

Consider SMAP (UniProt O00193), for which the log2 fold change is inactive: 0.085.

For the target SLC38A10 (UniProt Q9HBR0), the log2 fold change was inactive: -0.053.
